# Measurements taken from US20260083742A1, “HOMOLOGOUS RECOMBINATION REPAIR DEFICIENCY (HRD) AS A PREDICTIVE BIOMARKER FOR TREATING CANCER WITH WEE1 INHIBITORS” (Zeno Management, Inc., priority 2023, published 2026).
# At least one read-out could not be matched to a standard name with certainty.
# Test system: HRD+ cells UWB1289, HCC1937, COV362, HCC1569, HCC1395
# Assay: In vitro cell viability (CellTiter-Glo) in a panel of HRD+ cells
# Assay type: cell-based
# Settings: cell lines HCC1937, COV362 and HCC1569
# Procedure: Azenosertib, olaparib and AZD5305 (PARP1-selective inhibitor) were individually tested in vitro in a panel of HRD+ cells as indicated in Table 10. Briefly, cells were seeded in their recommended media at a density of 1,000 cells per well into 96 well plates. After 24 hr, drug treatment was performed and cells were incubated in a 37° C. for 5 cell doublings. Cell viability was measured using CellTiter-Glo (CTG) (Promega) according to the manufacturer's recommendations. Percent viability was calculated as percentage of cell viability relative to DMSO-only vehicle control. Dose-response curves were fit with Graphpad Prism 9 to determine IC50 values.
row,Compound,PARP inhibitor sensitivity (curves and IC50 values)
1,"CCc1cc2ncc(CN3CCN(c4ccc(C(=O)NC)nc4)CC3)cc2[nH]c1=O [AZD5305, saruparib]",resistance
2,"O=C(c1cc(Cc2n[nH]c(=O)c3ccccc23)ccc1F)N1CCN(C(=O)C2CC2)CC1 [Olaparib, olaparib]",resistance
